Data: the supplement of paper PMC6078165
± gives the standard deviation of the averaged measurements. The reference is the same well before dosing, and untreated signal decays as well.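 Fibroblast labels name human fibroblasts: mostly primary ones from tissues such as uterus (C12385, HUF), lung (H6013), bone (Hs27A), adrenal (HADF) and skin (WS1), plus mammary HMF and breast cancer-associated Hs343T. The cancer cells are basal-like or mesenchymal-like triple-negative breast cancer lines. The paper calls a changed response a hit when it shifts by more than 3x the replicate standard deviation. The tissue of the other fibroblasts is not given here.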 Numbered stars: 1 amine (or outer) side, 2 acyl side, 3 side chain; on linkers, the order of the positions; unused ones are H or OH. Bridge positions count the residues as written; N and C are the ends. Square brackets hold non-standard residues; d marks the D form. Peptide text beside a SMILES is read from it. I, II: the chains in the order shown. Actinocin(9to1) = Cc1c2oc3c(C)ccc(C(=O)[*:1])c3nc-2c(C(=O)[*:2])c(N)c1=O; NMeV = CN[C@H](C(=O)O)C(C)C; Sar = CNCC(=O)O

Tested on: MDAMB468
Assay: relative JC-1 red fluorescence (viability) vs pre-drug, coculture with fibroblast (fraction); higher = more viable cancer cells
Method: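 JC-1 labelled TNBC cells cocultured 1:1 (1,500 cells each) with CellTrace Violet stained primary or stromal fibroblasts in 384-well plates in FluoroBrite medium, treated with one of 42 anticancer drugs at 0.1, 1, 10 or 100 uM. JC-1 red fluorescence (mitochondrial integrity in cancer cells only) was read by plate reader every 8 h for 72 h. Values are normalised to each well's pre-drug value. The stock of one drug was tenfold lower, so its dose labels may be too high.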

Cc1c2oc3c(C)ccc(C(=O)N[C@@H]4C(=O)N[C@H](C(C)C)C(=O)N5CCC[C@H]5C(=O)N(C)CC(=O)N(C)[C@@H](C(C)C)C(=O)O[C@@H]4C)c3nc-2c(C(=O)N[C@@H]2C(=O)N[C@H](C(C)C)C(=O)N3CCC[C@H]3C(=O)N(C)CC(=O)N(C)[C@@H](C(C)C)C(=O)O[C@@H]2C)c(N)c1=O [Dactinomycin] (I: T[dV]P[Sar][NMeV] / II: T[dV]P[Sar][NMeV]; ester I:1-I:C, II:1-II:C; linker I:N-II:N via Actinocin(9to1))
relative JC-1 red fluorescence
Settings	8 h	16 h	24 h	32 h	40 h	48 h	56 h	64 h	72 h
0.1 µM, coculture fibroblast: C12385	0.877 ± 0.013	0.9033 ± 0.003	0.927 ± 0.0095	0.917 ± 0.017	0.906 ± 0.043	0.888 ± 0.057	0.958 ± 0.052	0.884 ± 0.078	0.899 ± 0.076
0.1 µM, coculture fibroblast: H6013	0.8672 ± 0.002	0.851 ± 0.014	0.815 ± 0.033	0.79 ± 0.029	0.767 ± 0.017	0.777 ± 0.013	0.7469 ± 0.0055	0.7472 ± 0.0045	0.691 ± 0.013
0.1 µM, coculture fibroblast: H6019	0.8649 ± 0.0019	0.8788 ± 0.0065	0.8762 ± 0.0061	0.835 ± 0.012	0.8196 ± 0.0067	0.88982 ± 0.00028	0.8999 ± 0.0013	0.9387 ± 0.0038	0.9812 ± 0.0038
0.1 µM, coculture fibroblast: H6076	0.908 ± 0.017	0.9068 ± 0.0081	0.8328 ± 0.0053	0.823 ± 0.011	0.755 ± 0.014	0.758 ± 0.045	0.747 ± 0.07	0.732 ± 0.096	0.774 ± 0.12
0.1 µM, coculture fibroblast: H6231	0.786 ± 0.038	0.858 ± 0.068	0.768 ± 0.062	0.769 ± 0.065	0.697 ± 0.058	0.651 ± 0.05	0.589 ± 0.015	0.559 ± 0.0039	0.5621 ± 0.005
0.1 µM, coculture fibroblast: HADF	0.8505 ± 0.004	0.8379 ± 0.0077	0.784 ± 0.027	0.77 ± 0.039	0.747 ± 0.055	0.765 ± 0.058	0.738 ± 0.052	0.746 ± 0.062	0.693 ± 0.063
0.1 µM, coculture fibroblast: HCFa	0.852 ± 0.018	0.844 ± 0.03	0.777 ± 0.035	0.759 ± 0.044	0.714 ± 0.064	0.725 ± 0.067	0.686 ± 0.069	0.683 ± 0.074	0.625 ± 0.066
0.1 µM, coculture fibroblast: HCPF	0.85728 ± 0.00065	0.9416 ± 0.005	0.844 ± 0.013	0.8278 ± 0.0057	0.754 ± 0.015	0.71 ± 0.014	0.638 ± 0.043	0.628 ± 0.045	0.632 ± 0.05
0.1 µM, coculture fibroblast: HHSteC	0.885 ± 0.023	0.841 ± 0.022	0.804 ± 0.014	0.761 ± 0.018	0.718 ± 0.042	0.722 ± 0.042	0.66 ± 0.038	0.645 ± 0.041	0.582 ± 0.043
0.1 µM, coculture fibroblast: HMF	0.8416 ± 0.0012	0.934 ± 0.049	0.847 ± 0.048	0.844 ± 0.041	0.773 ± 0.043	0.74 ± 0.015	0.659 ± 0.022	0.636 ± 0.059	0.62 ± 0.088
0.1 µM, coculture fibroblast: HPFa	0.905 ± 0.014	0.8652 ± 0.0049	0.807 ± 0.018	0.7526 ± 0.0041	0.7361 ± 0.0068	0.759 ± 0.0084	0.704 ± 0.019	0.69 ± 0.015	0.618 ± 0.013
0.1 µM, coculture fibroblast: HUF	0.867 ± 0.016	0.809 ± 0.031	0.767 ± 0.053	0.714 ± 0.055	0.701 ± 0.066	0.734 ± 0.074	0.7 ± 0.081	0.713 ± 0.079	0.71 ± 0.079
0.1 µM, coculture fibroblast: Hs5	0.9684 ± 0.0047	0.91 ± 0.018	0.869 ± 0.062	0.853 ± 0.065	0.792 ± 0.089	0.778 ± 0.071	0.771 ± 0.07	0.75 ± 0.086	0.784 ± 0.086
0.1 µM, coculture fibroblast: Hs27A	0.854 ± 0.017	0.893 ± 0.012	0.846 ± 0.025	0.856 ± 0.032	0.839 ± 0.039	0.87 ± 0.046	0.844 ± 0.055	0.835 ± 0.055	0.77 ± 0.061
0.1 µM, coculture fibroblast: Hs343T	0.882 ± 0.018	0.948 ± 0.057	0.843 ± 0.048	0.817 ± 0.049	0.731 ± 0.024	0.6814 ± 0.0041	0.5915 ± 0.0023	0.57 ± 0.0065	0.561 ± 0.019
0.1 µM, coculture fibroblast: WS1	0.879 ± 0.014	0.85 ± 0.013	0.835 ± 0.013	0.8048 ± 0.0039	0.777 ± 0.014	0.784 ± 0.017	0.783 ± 0.024	0.788 ± 0.035	0.794 ± 0.053
1 µM, coculture fibroblast: C12385	0.784 ± 0.023	0.741 ± 0.11	0.706 ± 0.15	0.662 ± 0.16	0.631 ± 0.17	0.644 ± 0.18	0.597 ± 0.17	0.587 ± 0.17	0.592 ± 0.19
1 µM, coculture fibroblast: H6013	0.8245 ± 0.0022	0.754 ± 0.025	0.693 ± 0.038	0.637 ± 0.043	0.606 ± 0.029	0.604 ± 0.025	0.567 ± 0.026	0.558 ± 0.025	0.492 ± 0.0066
1 µM, coculture fibroblast: H6019	0.772 ± 0.025	0.7013 ± 0.0021	0.661 ± 0.017	0.61 ± 0.025	0.58 ± 0.033	0.585 ± 0.033	0.557 ± 0.024	0.548 ± 0.024	0.558 ± 0.022
1 µM, coculture fibroblast: H6076	0.8798 ± 0.0018	0.833 ± 0.02	0.7241 ± 0.002	0.7 ± 0.012	0.611 ± 0.023	0.58 ± 0.022	0.54 ± 0.035	0.512 ± 0.048	0.553 ± 0.059
1 µM, coculture fibroblast: H6231	0.79 ± 0.022	0.799 ± 0.048	0.692 ± 0.027	0.683 ± 0.053	0.591 ± 0.056	0.559 ± 0.037	0.517 ± 0.021	0.493 ± 0.031	0.506 ± 0.039
1 µM, coculture fibroblast: HADF	0.842 ± 0.024	0.806 ± 0.032	0.727 ± 0.033	0.693 ± 0.043	0.65 ± 0.054	0.639 ± 0.06	0.577 ± 0.071	0.555 ± 0.066	0.487 ± 0.065
1 µM, coculture fibroblast: HCFa	0.83 ± 0.025	0.763 ± 0.064	0.697 ± 0.06	0.639 ± 0.076	0.623 ± 0.1	0.633 ± 0.11	0.601 ± 0.12	0.586 ± 0.12	0.537 ± 0.1
1 µM, coculture fibroblast: HCPF	0.8268 ± 0.0079	0.806 ± 0.026	0.71 ± 0.03	0.715 ± 0.033	0.63 ± 0.043	0.594 ± 0.05	0.559 ± 0.045	0.549 ± 0.054	0.545 ± 0.056
1 µM, coculture fibroblast: HHSteC	0.8387 ± 0.0026	0.77068 ± 9.6e-05	0.726 ± 0.017	0.678 ± 0.019	0.68 ± 0.028	0.688 ± 0.029	0.634 ± 0.031	0.612 ± 0.035	0.552 ± 0.036
1 µM, coculture fibroblast: HMF	0.80659 ± 0.00072	0.807 ± 0.012	0.7016 ± 0.0035	0.67546 ± 0.0003	0.591 ± 0.01	0.576 ± 0.0071	0.5398 ± 0.0021	0.5333 ± 0.0039	0.5394 ± 0.0052
1 µM, coculture fibroblast: HPFa	0.87 ± 0.013	0.784 ± 0.011	0.747 ± 0.029	0.666 ± 0.053	0.638 ± 0.061	0.636 ± 0.06	0.591 ± 0.061	0.586 ± 0.06	0.523 ± 0.069
1 µM, coculture fibroblast: HUF	0.8172 ± 0.0053	0.693 ± 0.0086	0.616 ± 0.011	0.542 ± 0.021	0.511 ± 0.03	0.496 ± 0.042	0.456 ± 0.043	0.447 ± 0.045	0.438 ± 0.057
1 µM, coculture fibroblast: Hs5	0.947 ± 0.015	0.833 ± 0.019	0.745 ± 0.0096	0.712 ± 0.014	0.616 ± 0.02	0.582 ± 0.032	0.553 ± 0.038	0.528 ± 0.044	0.571 ± 0.048
1 µM, coculture fibroblast: Hs27A	0.8168 ± 0.0065	0.7837 ± 0.0023	0.716 ± 0.016	0.685 ± 0.022	0.663 ± 0.017	0.6739 ± 0.0059	0.648 ± 0.0094	0.633 ± 0.012	0.5742 ± 0.0039
1 µM, coculture fibroblast: Hs343T	0.842 ± 0.0088	0.832 ± 0.0095	0.72 ± 0.018	0.673 ± 0.033	0.567 ± 0.046	0.543 ± 0.063	0.507 ± 0.083	0.485 ± 0.073	0.488 ± 0.078
1 µM, coculture fibroblast: WS1	0.8059 ± 0.0011	0.694 ± 0.036	0.608 ± 0.055	0.549 ± 0.052	0.514 ± 0.037	0.512 ± 0.032	0.497 ± 0.017	0.492 ± 0.027	0.5 ± 0.03
